Experimental findings from publication PMC10066286 are described below.

Assay [1] addresses T1, SRP72 (signal recognition particle 72), wild-type (human) (UniProt O76094).
T1 sequence: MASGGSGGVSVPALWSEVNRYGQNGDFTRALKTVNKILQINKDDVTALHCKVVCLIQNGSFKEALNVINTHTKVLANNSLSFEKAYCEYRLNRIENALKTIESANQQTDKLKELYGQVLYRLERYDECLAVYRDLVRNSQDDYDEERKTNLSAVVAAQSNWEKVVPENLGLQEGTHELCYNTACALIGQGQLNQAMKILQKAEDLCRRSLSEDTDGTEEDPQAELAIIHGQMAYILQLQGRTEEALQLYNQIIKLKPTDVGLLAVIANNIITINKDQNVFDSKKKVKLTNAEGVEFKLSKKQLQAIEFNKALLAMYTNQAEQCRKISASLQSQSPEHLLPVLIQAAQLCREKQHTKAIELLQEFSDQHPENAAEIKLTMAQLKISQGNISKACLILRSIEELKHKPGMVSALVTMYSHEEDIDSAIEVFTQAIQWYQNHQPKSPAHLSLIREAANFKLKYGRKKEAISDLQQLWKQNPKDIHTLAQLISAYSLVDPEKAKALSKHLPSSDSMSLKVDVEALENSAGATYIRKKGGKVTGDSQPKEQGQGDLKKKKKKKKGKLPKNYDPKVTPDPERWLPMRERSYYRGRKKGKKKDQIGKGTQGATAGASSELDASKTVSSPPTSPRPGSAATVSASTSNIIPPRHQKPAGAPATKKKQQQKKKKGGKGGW
As to the kind of experiment: co-IP; lysates of transfected 293T cells, 48 h after transfection; Pierce MS-Compatible Magnetic IP Kit; incubated with anti-c-Myc antibody (9E10) at 4 °C overnight; immunoblotting with anti-Myc (9B11), anti-HA (C29F4) and anti-GAPDH.

The target in assay [2] is T2, SRP72 p.R124S mutant (human) (UniProt O76094).
T2 sequence: T1 sequence with R124S
The description is as above.

Positions count from the first letter of the chain named. No constants are given. Whether binding was seen depends on the method and setting. In cells and extracts the contact can be indirect. Some results given as binding are weak or reduced against the parent protein; the word gives no strength.

B1: SRP68 (protein, UniProt Q9UHB9 1-627)
chain: MAAEKQVPGGGGGGGSGGGGGSGGGGSGGGRGAGGEENKENERPSAGSKANKEFGDSLSLEILQIIKESQQQHGLRHGDFQRYRGYCSRRQRRLRKTLNFKMGNRHKFTGKKVTEELLTDNRYLLLVLMDAERAWSYAMQLKQEANTEPRKRFHLLSRLRKAVKHAEELERLCESNRVDAKTKLEAQAYTAYLSGMLRFEHQEWKAAIEAFNKCKTIYEKLASAFTEEQAVLYNQRVEEISPNIRYCAYNIGDQSAINELMQMRLRSGGTEGLLAEKLEALITQTRAKQAATMSEVEWRGRTVPVKIDKVRIFLLGLADNEAAIVQAESEETKERLFESMLSECRDAIQVVREELKPDQKQRDYILEGEPGKVSNLQYLHSYLTYIKLSTAIKRNENMAKGLQRALLQQQPEDDSKRSPRPQDLIRLYDIILQNLVELLQLPGLEEDKAFQKEIGLKTLVFKAYRCFFIAQSYVLVKKWSEALVLYDRVLKYANEVNSDAGAFKNSLKDLPDVQELITQVRSEKCSLQAAAILDANDAHQTETSSSQVKDNKPLVERFETFCLDPSLVTKQANLVHFPPGFQPIPCKPLFFDLALNHVAFPPLEDKLEQKTKSGLTGYIKGIFGFRS
Take B1: the binding entry in assay [1] and in assay [2] was “binds” each time.
